Measurements as given in PubChem BioAssay AID1347076 (National Center for Advancing Translational Sciences (NCATS), 2019).
Screen size: about 400,000 compounds; about 13,000 (3.2%) were called active. Inconclusive means that the source gave no clear call. Such entries were picked first, then a sample of the others. Calls follow the shape of the dose curve; as a rule, active = well fitted cell-killing curve with a large enough effect; inconclusive = small, poorly fitted or top-dose-only effect, or effect the other way; inactive = flat fitted curve, though single readings scatter. Where the call is inconclusive, the potency comes from a doubtful curve fit.

Experiment: qHTS assay for MDR1-selective chemotherapeutics: Primary screen using the drug-selected MDR subline cells KB-V1; also: nearly all actives have a fitted effect of over 60% in size
Conditions: KB-V1 MDR cells viability, CellTiter-Glo, 72 h; activity change, negative = cytotoxicity: at 46.1 µM (top of the series)
In short: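 Cytotoxicity toward P-gp-expressing KB-V1 cells was determined as loss of CellTiter-Glo luminescence after 72 h at 37 degrees C. Compounds were tested in quantitative HTS format across a concentration range, with curves fitted to normalized data.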
% is scaled to controls: 0 for no effect and ±100 for the full control effect; potency is read from the fitted curve at half-maximal effect.

SMILES	Potency	activity change, negative = cytotoxicity
COc1ccc(NC(=O)C2OCCc3ccccc32)c(OC)c1 (configuration not stated)	inconclusive: 14.6 µM [cytotoxic, partial curve]	
Nc1nc(SCc2ccccn2)c2ncn(C3OC(CO)C(O)C3O)c2n1 (configuration not stated)	inactive	
O=[N+]([O-])c1cccc(N/N=C/c2cccc(O)c2O)c1	inconclusive: 16.4 µM [cytotoxic, single point]	
COc1ccc(NS(=O)(=O)c2cccc(C(=O)NCCCN3CCCC3=O)c2)cc1	inconclusive: 16.4 µM [rising, partial curve]	
CCN(CC)S(=O)(=O)c1ccc(N(C)C)c(NC(=O)CSCc2c(C)noc2C)c1	inconclusive: 4.61 µM [cytotoxic, partial curve]	
Nc1nonc1-c1nc2ccccc2n1Cc1ccccc1	inconclusive: 29.1 µM [cytotoxic, single point]	
CCc1noc(C)c1C(=O)NNC(=O)c1nn(CC)c(=O)c2ccccc12	inconclusive: 16.4 µM [cytotoxic, partial curve, poor fit]	
COc1cccc(N(CC(=O)NC2CCCC2)C(=O)Cn2nnc(-c3ccc(C)cc3)n2)c1	inactive	
CN1CCN(S(=O)(=O)c2ccc3c(c2)CC(=O)N3C)CC1	inconclusive: 29.1 µM [rising, single point]	
O=C(CSc1nnc(Cn2nnc3ccccc32)o1)N(Cc1ccc(Cl)cc1)c1ccccc1	inactive	
COc1ccc(OCC(O)CNC(=O)c2ccc(OC)cc2)cc1 (configuration not stated)	inactive	
Cc1ccc(NC(=O)c2cc(=O)c3ccccc3o2)cc1S(=O)(=O)N1CCOCC1	active: 16.4 µM	
N#Cc1ccccc1S(=O)(=O)Nc1ccc2c(c1)OCCO2	inactive	
COc1ccccc1C1N(c2ccc(Cl)cc2)C(=O)C2CCCN21 (configuration not stated)	inconclusive: 16.4 µM [cytotoxic, single point]	
O=C(O)CCN1C(=O)/C(=C\c2ccncc2)SC1=S	inactive	
O=C(c1ccc(CNS(=O)(=O)c2ccc(Br)cc2)cc1)N1CCCCC1	inactive	
CC(=O)Nc1nonc1-n1nnc(C(=O)NCc2ccccc2)c1C	inconclusive: 16.4 µM [cytotoxic, partial curve]	
Cc1cc(NCCCn2ccnc2)n2c(nc3ccccc32)c1C#N	inactive	
Cc1cccc(N2C(=O)CC(Sc3nc(-c4ccccc4)c4cc(Cl)ccc4n3)C2=O)c1 (configuration not stated)	inconclusive: 18.4 µM [cytotoxic, single point]	
C#CCOc1c(Cl)cc(/C=C2/C(=O)ON=C2C)cc1OC	inconclusive: 29.1 µM [rising, single point]	
Cc1cccc(NC(=S)N2CCN(C(=O)C3CCCO3)CC2)c1 (configuration not stated)	inconclusive: 23.1 µM [rising, partial curve, poor fit]	
Nc1nc(SCc2ccc3c(c2)OCCO3)n[nH]1	inconclusive: 23.1 µM [rising, partial curve, poor fit]	
O=C(O)C(=O)/C(=C\c1ccccc1)c1ccc2ccccc2n1	inactive	
COc1ccc(N2C(=O)CSC23C(=O)N(Cc2cccc(C(F)(F)F)c2)c2ccccc23)cc1 (configuration not stated)	inconclusive: 18.4 µM [cytotoxic, single point]	

SMILES	Potency	activity change, negative = cytotoxicity
O=C(Cc1coc2cc(O)ccc12)N1CCN(S(=O)(=O)c2ccc(Br)cc2)CC1	inconclusive: 18.4 µM [cytotoxic, single point]	
COc1cc(C(O)c2nc(-c3ccccc3C)cs2)ccc1F (configuration not stated)	inconclusive: 16.4 µM [cytotoxic, single point]	
Cc1ccc(C)c(S(=O)(=O)Nc2ccc(O)cc2)c1	inconclusive: 29.1 µM [cytotoxic, partial curve, poor fit]	
CCCCCC(=O)Nc1c2c(nc3ccccc13)CCC2	inconclusive: 18.4 µM [cytotoxic, partial curve, poor fit]	
O=C(NCCc1ccccc1)c1cccc2c1C(=O)N(C1CCCCC1)C2	inactive	
COc1ccc(Cc2nnc(NCCO)[nH]c2=O)cc1	inconclusive: 29.1 µM [rising, single point]	
COc1ccccc1OCC(=O)N(Cc1cccs1)C1CCS(=O)(=O)C1 (configuration not stated)	inactive	
CCC(=O)c1ccc(OCC(=O)OCC(=O)c2cc(C)n(C)c2C)cc1	inconclusive: 32.6 µM [rising, single point]	
Cc1cc2oc(C(=O)NCC(c3ccco3)N3CCCC3)c(C)c2cc1C (configuration not stated)	inactive	
CCOC(=O)C1CCCN(C(=O)c2cc(C)oc2C)CC1 (configuration not stated)	inactive	
O=S(=O)(c1ccccc1F)N1CCN(CCc2ccccc2)CC1	inconclusive: 20.6 µM [cytotoxic, single point]	
Nc1nc(-c2ccccn2)nc(N)c1Cc1ccc(Cl)cc1Cl	inconclusive: 1.46 µM [cytotoxic, full curve, poor fit]	
CCNC(=S)N(Cc1ccc(OC)cc1)C1CC(=O)N(c2ccc(OCC)cc2)C1=O (configuration not stated)	inconclusive: 16.4 µM [cytotoxic, partial curve, poor fit]	
CC(C)[C@H](N)c1nnc2n1N=C(c1ccc(Cl)cc1)CS2	inactive	
COc1ccccc1CNc1nc(-c2ccco2)nn1S(C)(=O)=O	inactive	
CC(=O)c1cc(C(=O)N2CCc3c([nH]c4ccccc34)C2C2CCCCC2)[nH]n1 (configuration not stated)	inconclusive: 23.1 µM [rising, single point]	
CCOc1ccccc1CNC(=O)C1CCN(S(=O)(=O)N2CCC(C)CC2)CC1	inconclusive: 23.1 µM [cytotoxic, partial curve, poor fit]	
O=C(c1ccco1)N1CCN(S(=O)(=O)c2ccc(Cl)cc2)CC1	inconclusive: 18.4 µM [cytotoxic, single point]	
CCOC(=O)Cn1nc(C)c(NC(=O)COc2ccccc2)c1C	inconclusive: 3.26 µM [cytotoxic, partial curve, poor fit]	
O=C(OCc1nnc(-c2ccccc2)o1)C1CC(=O)N(CCc2ccccc2)C1 (configuration not stated)	inconclusive: 25.9 µM [cytotoxic, single point]	
Cc1cc2nc(C3CCCN(C(=O)NCc4ccccc4)C3)[nH]c2cc1C (configuration not stated)	inconclusive: 29.1 µM [cytotoxic, single point]	
Cc1ccc(OCCN2CCN(C(=O)CCC(=O)Nc3nnc(C(C)C)s3)CC2)cc1	inconclusive: 29.1 µM [cytotoxic, single point]	
O=C(C#Cc1ccccc1)c1ccccc1	inconclusive: 20.6 µM [cytotoxic, single point]	
CC1=C(/C=N/Nc2ccc([N+](=O)[O-])cc2[N+](=O)[O-])C(C)(C)CCC1	inconclusive: 29.1 µM [cytotoxic, single point]	

Taken from above.
COc1ccccc1CNc1nc(-c2ccco2)nn1S(C)(=O)=O | Potency: inactive
COc1ccccc1OCC(=O)N(Cc1cccs1)C1CCS(=O)(=O)C1 (configuration not stated) | Potency: inactive
O=[N+]([O-])c1cccc(N/N=C/c2cccc(O)c2O)c1 | Potency: inconclusive: 16.4 µM [cytotoxic, single point]
Nc1nc(SCc2ccccn2)c2ncn(C3OC(CO)C(O)C3O)c2n1 (configuration not stated) | Potency: inactive
C#CCOc1c(Cl)cc(/C=C2/C(=O)ON=C2C)cc1OC | Potency: inconclusive: 29.1 µM [rising, single point]

Remaining list, next part

SMILES	Potency	activity change, negative = cytotoxicity
COc1cccc(NC(=O)CN(C)C(=O)c2cc(Cl)nc3ccccc23)c1	inconclusive: 3.66 µM [rising, partial curve, poor fit]	
CSc1ccc(CNC(=O)Cc2ccc(NC(=O)C3=C(C)OCCS3)cc2)cc1	inconclusive: 16.4 µM [cytotoxic, partial curve]	
COc1cccc(C2Nc3ccc4ccccc4c3C3=C2C(=O)CCC3)c1O (configuration not stated)	inactive	
O=C(C1CC(=O)N(c2ccc(F)cc2)C1)N1CCCCCC1 (configuration not stated)		inconclusive: 5.24%
COc1c(-c2ccc(O)cc2)oc2cc(O)cc(O)c2c1=O	inactive	
Cc1cc(NC(=O)/C=C/c2cccc(Cl)c2)n(-c2nc3ccccc3[nH]2)n1	inconclusive: 4.11 µM [cytotoxic, full curve, poor fit]	
COCc1cc(=O)[nH]c(/N=C(\N)Nc2cccc(Cl)c2)n1	inactive	
CC1=C(C(=O)N(C)C)CC(CC(=O)NCCCCc2ccccc2)C(=O)N1CCCN1CCCC1=O (configuration not stated)	inactive	
O=C(c1ccc(=O)[nH]c1)N(Cc1ccco1)C1(C(=O)NC2CCCC2)CCCCC1	inconclusive: 11.6 µM [rising, partial curve, poor fit]	
COC(=O)CCC(=O)COc1ccc(OC)cc1C#N	inactive	
CCOC(=O)c1c(-c2cc(OC)c(OC)c(OC)c2)csc1N	inconclusive: 23.1 µM [cytotoxic, single point]	
COc1ccc2[nH]c(=O)c(CN(C(=O)NC3CCCCC3)C3CCCCC3)cc2c1	active: 10.3 µM	
Cc1ccc([N+](=O)[O-])cc1S(=O)(=O)Nc1ccc(O)c(Sc2ncn[nH]2)c1	inactive	
CCOC(=O)N1CCN(S(=O)(=O)c2ccc(OC)c(Cl)c2)CC1	inactive	
CN1CCSc2ccc(C(=O)Nc3cc(F)ccc3F)cc21	inconclusive: 29.1 µM [cytotoxic, single point]	
O=C(CNC(=O)c1ccc(Br)o1)NCc1ccc(Cl)cc1	inactive	
NC(=O)c1c(NC(=O)c2cc(-c3ccc(F)cc3)on2)sc2c1CCCC2	inactive	
CN(C)S(=O)(=O)c1cccc(COC(=O)c2cc([N+](=O)[O-])ccc2N2CCOCC2)c1	inconclusive: 20.6 µM [cytotoxic, single point]	
O=C(NCCS(=O)(=O)N1CCN(Cc2ccccc2)CC1)c1ccc(F)cc1	inactive	
COc1cc(/C=N/Nc2nc3ccccc3[nH]2)cc(OC)c1O	inactive	
O=C(NC(=S)NCCc1ccccc1)C1CCCCC1	inconclusive: 14.6 µM [cytotoxic, partial curve]	
COc1ccc(CC(=O)Nc2cc(Cl)ccc2N2CCCC2)cc1	inconclusive: 18.4 µM [cytotoxic, single point]	
CC(=O)Nc1cc(-c2ccc(Cl)cc2)[nH]n1	inconclusive: 29.1 µM [rising, single point]	
CCN(CC)C(=O)CC(c1ccccc1)c1ccco1 (configuration not stated)	inconclusive: 16.4 µM [cytotoxic, partial curve, poor fit]	
